The supplement of paper PMC6078165
Values are relative to the signal before dosing, not to a vehicle control; the signal also falls without drug.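 Fibroblast labels name human fibroblasts: mostly primary ones from tissues such as uterus (C12385, HUF), lung (H6013), bone (Hs27A), adrenal (HADF) and skin (WS1), plus mammary HMF and breast cancer-associated Hs343T. The cancer cells are basal-like or mesenchymal-like triple-negative breast cancer lines. The paper calls a changed response a hit when it shifts by more than 3x the replicate standard deviation. The tissue of the other fibroblasts is not given here.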

Tested on: MDAMB231
Assay: relative JC-1 red fluorescence (viability) vs pre-drug, coculture with fibroblast (fraction); higher = more viable cancer cells
Method: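 JC-1 labelled TNBC cells cocultured 1:1 (1,500 cells each) with CellTrace Violet stained primary or stromal fibroblasts in 384-well plates in FluoroBrite medium, treated with one of 42 anticancer drugs at 0.1, 1, 10 or 100 uM. JC-1 red fluorescence (mitochondrial integrity in cancer cells only) was read by plate reader every 8 h for 72 h. Values are normalised to each well's pre-drug value. The stock of one drug was tenfold lower, so its dose labels may be too high.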

O=C(O)C1(C(=O)O)CCC1.[NH2-].[NH2-].[Pt+2] [Carboplatin]
relative JC-1 red fluorescence
Conditions	8 h	16 h	24 h	32 h	40 h	48 h	56 h	64 h	72 h
10 µM, coculture fibroblast: C12385	0.801	0.817	0.6373	0.671	0.598	0.563	0.509	0.488	0.459
10 µM, coculture fibroblast: H6013	0.904	0.8438	0.811	0.7855	0.739	0.703	0.692	0.6585	0.63
10 µM, coculture fibroblast: H6019	0.839	0.84	0.749	0.79	0.754	0.722	0.665	0.625	0.574
10 µM, coculture fibroblast: H6076	0.892	0.794	0.701	0.676	0.623	0.577	0.543	0.53	0.516
10 µM, coculture fibroblast: H6231	0.896	0.819	0.757	0.707	0.675	0.647	0.5987	0.576	0.545
10 µM, coculture fibroblast: HADF	0.894	0.8506	0.7942	0.7606	0.713	0.653	0.638	0.614	0.563
10 µM, coculture fibroblast: HCFa	0.8927	0.8273	0.787	0.74355	0.691	0.647	0.6195	0.5879	0.5328
10 µM, coculture fibroblast: HCPF	0.91	0.808	0.706	0.676	0.605	0.561	0.515	0.483	0.453
10 µM, coculture fibroblast: HHSteC	0.919	0.859	0.81	0.764	0.721	0.695	0.657	0.624	0.587
10 µM, coculture fibroblast: HMF	0.9113	0.8225	0.744	0.705	0.657	0.616	0.572	0.543	0.512
10 µM, coculture fibroblast: HPFa	0.929	0.89	0.84	0.787	0.755	0.725	0.672	0.633	0.565
10 µM, coculture fibroblast: HUF	0.8327	0.733	0.696	0.587	0.502	0.474	0.416	0.396	0.363
10 µM, coculture fibroblast: Hs5	0.952	0.87	0.779	0.719	0.661	0.603	0.549	0.523	0.495
10 µM, coculture fibroblast: Hs27A	0.8835	0.83475	0.7922	0.7671	0.709	0.65	0.652	0.635	0.587
10 µM, coculture fibroblast: Hs343T	0.917	0.821	0.72	0.675	0.616	0.57	0.512	0.481	0.457
10 µM, coculture fibroblast: WS1	0.772	0.704	0.608	0.574	0.508	0.468	0.413	0.3962	0.36584
100 µM, coculture fibroblast: C12385	0.739	0.685	0.725	0.639	0.606	0.568	0.539	0.565	0.557
100 µM, coculture fibroblast: H6013	0.902	0.868	0.831	0.821	0.788	0.777	0.755	0.734	0.688
100 µM, coculture fibroblast: H6019	0.779	0.73	0.792	0.725	0.703	0.698	0.667	0.675	0.651
100 µM, coculture fibroblast: H6076	0.791	0.736	0.7344	0.7259	0.7144	0.6982	0.704	0.707	0.72
100 µM, coculture fibroblast: H6231	0.892	0.82	0.761	0.729	0.676	0.65	0.617	0.596	0.575
100 µM, coculture fibroblast: HADF	0.882	0.868	0.831	0.802	0.767	0.731	0.7062	0.69	0.629
100 µM, coculture fibroblast: HCFa	0.8812	0.83484	0.791	0.74	0.702	0.669	0.633	0.613	0.572
100 µM, coculture fibroblast: HCPF	0.8053	0.718	0.671	0.66	0.6141	0.585	0.561	0.535	0.5253
100 µM, coculture fibroblast: HHSteC	0.901	0.863	0.817	0.775	0.735	0.717	0.667	0.652	0.608
100 µM, coculture fibroblast: HMF	0.879	0.815	0.784	0.767	0.729	0.685	0.669	0.642	0.609
100 µM, coculture fibroblast: HPFa	0.9125	0.8963	0.8697	0.8181	0.7985	0.769	0.719	0.694	0.6551
100 µM, coculture fibroblast: HUF	0.826	0.749	0.789	0.675	0.617	0.618	0.57	0.586	0.573
100 µM, coculture fibroblast: Hs5	0.847	0.7855	0.748	0.709	0.674	0.625	0.613	0.599	0.575
100 µM, coculture fibroblast: Hs27A	0.87628	0.8488	0.814	0.792	0.751	0.72	0.717	0.714	0.668
100 µM, coculture fibroblast: Hs343T	0.8439	0.76	0.698	0.654	0.594	0.55	0.507	0.486	0.454
100 µM, coculture fibroblast: WS1	0.732	0.671	0.664	0.583	0.543	0.525	0.488	0.494	0.478
